US20240261243A1, “NITRIC OXIDE DONORS, COMPOSITIONS, AND METHODS OF USE” (priority 2020, published 2024)
At least one structure is not confirmed: it was looked up by name or label, or the drawing left a doubt.

Test system: P. aeruginosa (PAK)
Experiment: Combination MIC/MBC assay, BIOC76 with fixed gallium citrate
Type: cell-based, Pseudomonas aeruginosa
Settings: strain N0049 (PAK)
Procedure: Combination MIC/MBC assays are useful when you want to look at only a few concentrations of one compound (Gallium citrate) combined with many concentrations of the second compound (BIOC76).
This method also allows us to see the change in both the MIC and MBC of a drug when in combination with another drug. Checkerboard assays only allow us to see changes in the MIC's.
Test articles are added to a 96-well plate so that when a 2× bacterial culture (prepared to 10^6 CFU/ml) is added, the final concentration in all wells was 1×.
All test articles are prepared at 4×→diluted 1:1 when other TA is added (2×) and diluted 1:1 again to 1× when bacteria are added.
TA #1 (Gallium citrate) is prepared and added to entire rows of a plate at a single concentration.
TA #2 (BIOC76) in then prepared and serially diluted in TA #1, so there are 2-fold dilutions of TA #2 combined with a single concentration of TA #1.
Plates were incubated at 37° C. for 18-24 h.
The ΔMIC/IBC is used to show the change in the MIC/IBC of BIOC76 when in combination with Gallium citrate (compared to when BIOC76 is used alone).
ΔMIC/MBC is the fold-decrease in BIOC76 concentration as a result of the combination.
We concluded BIOC76 and gallium citrate maintain synergistic activity so long as the gallium concentration is at least about 0.005 to about 0.02 mg/ml. In this experimental, we set up MIC/MBC assay and serially diluted BIOC76 in rows with fixed concentrations of gallium citrate. […] The results are shown in FIG. 6, and in the following tables: […]

Measured: Δ MIC

O=NN(O)N(CCO)CC1OC2OC3C(CN(CCO)N(O)N=O)OC(OC4C(CN(CCO)N(O)N=O)OC(OC5C(CN(CCO)N(O)N=O)OC(OC6C(CN(CCO)N(O)N=O)OC(OC7C(CN(CCO)N(O)N=O)OC(OC8C(CN(CCO)N(O)N=O)OC(OC1C(O)C2O)C(O)C8O)C(O)C7O)C(O)C6O)C(O)C5O)C(O)C4O)C(O)C3O (stereo not drawn) [BIOC76]
>2^15 fold-decrease: with 0.065 mg/ml GaCi | with 0.125 mg/ml GaCi | with 0.25 mg/ml GaCi | with 0.5 mg/ml GaCi | with 1 mg/ml GaCi | with 2 mg/ml GaCi
